Measurements from US10251871B2, “Compositions and methods for treatment of edema” (Memorial Sloan Kettering Cancer Center, priority 2015, dated 2019).
At least one compound was matched to its structure with a doubt left.

Experiments:
[1] = system: popliteal lymph node dissection (PLND) mouse model; experiment: Popliteal lymph node dissection (PLND) hind limb model of lymphatic injury
[2] = system: mouse tail model of lymphedema; experiment: Mouse tail model of lymphedema (tail volume, histology, immunostaining, lymphoscintigraphy, NIR imaging, PCR, ELISA); type: in vivo, C57BL/6J mice

Structure (SMILES): C/C(O)=C(\C#N)C(=O)Nc1ccc(C(F)(F)F)cc1 [teriflunomide]
- pumping frequency of the main hind limb collecting lymphatics ([1]; topical teriflunomide 27 mg/ml after PLND, vs control): nearly doubled
- leakiness of lymphatic vessels in the dermis ([1]; topical teriflunomide 27 mg/ml after PLND, vs vehicle): significantly decreased
- proliferation of alpha smooth muscle cells surrounding collecting lymphatics ([1]; topical teriflunomide 27 mg/ml, following PLND, vs control): decreased proliferation
- fibroadipose tissue deposition in tail cross sections ([2]; topical teriflunomide 27 mg/ml once daily for 4 weeks from 2 weeks after surgery, 6 weeks after lymphatic ablation, vs vehicle): minimal adipose tissue deposition
- type I collagen deposition ([2]; topical teriflunomide 27 mg/ml, 6 weeks after injury, vs vehicle): marked decreases
- newly formed lymphatics that crossed the zone of injury ([2]; topical teriflunomide 27 mg/ml, 6 weeks after tail lymphatic ablation, vs control): significant increase
